In PubChem BioAssay AID1671190 (National Center for Advancing Translational Sciences (NCATS), 2021):
“And” between values parts separate entries of the source, which are not always exact repeats. Equal entries are not always repeated. Out of some 580,000 compounds screened, about 6,100 (1.1%) were called active. This list was built around the results that the source calls inconclusive (neither active nor inactive); the mix of calls is not that of the screen. Calls come from the whole dose curve; as a rule, active = well fitted inhibition curve with a large enough effect; inconclusive = small, poorly fitted or top-dose-only effect, or another doubt; inactive = no such curve, though single readings can be large or run the other way. Potencies beside an inconclusive call are fits to weak or partial responses and may not hold up.

Chains of the proteins cited; added tags and fusions are not shown. Lines headed by an entry give the natural chain unless they say otherwise; changes in a name come on top.
UniProt P18054: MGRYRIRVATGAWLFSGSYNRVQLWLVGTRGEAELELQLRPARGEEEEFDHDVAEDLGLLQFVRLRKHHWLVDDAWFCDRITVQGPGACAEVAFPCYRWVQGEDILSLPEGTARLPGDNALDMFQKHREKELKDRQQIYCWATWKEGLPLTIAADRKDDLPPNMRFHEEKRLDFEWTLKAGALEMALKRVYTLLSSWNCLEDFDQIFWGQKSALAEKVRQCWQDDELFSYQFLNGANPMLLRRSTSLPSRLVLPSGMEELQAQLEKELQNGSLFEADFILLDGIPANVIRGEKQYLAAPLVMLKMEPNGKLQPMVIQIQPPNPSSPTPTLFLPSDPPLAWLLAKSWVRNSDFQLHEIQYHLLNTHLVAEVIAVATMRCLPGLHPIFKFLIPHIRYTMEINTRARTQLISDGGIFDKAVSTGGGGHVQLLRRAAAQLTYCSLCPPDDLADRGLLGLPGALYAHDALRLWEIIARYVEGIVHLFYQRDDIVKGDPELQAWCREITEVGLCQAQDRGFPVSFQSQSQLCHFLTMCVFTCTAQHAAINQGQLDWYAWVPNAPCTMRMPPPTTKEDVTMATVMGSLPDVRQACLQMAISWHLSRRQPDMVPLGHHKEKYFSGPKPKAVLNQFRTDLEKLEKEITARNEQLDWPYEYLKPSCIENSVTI

Target: Polyunsaturated fatty acid lipoxygenase ALOX12 (Homo sapiens) (UniProt P18054)
Assay: Primary qHTS assay for inhibitors of human arachidonate 12S-lipoxygenase (ALOX12): Round 2
Details: purified 12hLO, xylenol orange hydroperoxide absorbance; activity change, negative = inhibition: at 108 µM (top of the series) unless noted
In short: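 Purified human 12hLO at 150 nM in 25 mM Hepes, 0.01% Triton X-100, pH 7.0, preincubated 15 min at room temperature with compound. Reaction started with 40 uM arachidonic acid, 30 min at room temperature. Hydroperoxide measured by Fe-xylenol orange, 573/405 nm absorbance ratio.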
% is set by controls: 0 for no effect and ±100 for the full control effect; potency is the fitted concentration of half-maximal effect.

With `NC(=O)c1ccc(C(=O)NCC(O)c2ccc(F)c(F)c2)nc1` (stereo unspecified) as the molecule, how does the Potency read?
The Potency was inconclusive: 5.01 µM [inhibitor, full curve].

`COc1ccc(C(=O)N2C(=S)NC(=O)/C2=C\c2ccc(C)cc2)cc1` was tested. Which Potency did it give?
Its Potency is inconclusive: 56.2 µM [inhibitor, partial curve, poor fit].

With `Cc1c(-c2ccccc2)c(=O)oc2cc(OC(=O)c3ccco3)ccc12` as the molecule, how does the “activity change, negative = inhibition” value read?
Its value is inactive: 17.4%.

For `CNc1c(NC(=O)c2ccc(OC)c(Br)c2)c(=O)oc2ccccc12`, which Potency is on record?
Its Potency is inconclusive: 12.6 µM [inhibitor, partial curve, poor fit].

For `COc1ccccc1N1CCN(Cc2cc(Br)c(O)c3ncccc23)CC1`, which Potency is on record?
The Potency was active: 35.5 µM.

For `Clc1ccc(CSc2nccn2Cc2ccccc2)cc1`, which Potency is on record?
Its Potency is inconclusive: 39.8 µM [inhibitor, partial curve, poor fit].

With `O=C(OC1CCOC1=O)c1cc(-c2ccc(Br)cc2)nc2ccccc12` (stereo unspecified) as the molecule, how does the Potency read?
The Potency was inconclusive: 50.1 µM [inhibitor, partial curve, poor fit].

With `CSc1ccc(/C=C2/C(=N)N3N=C(CC(=O)N4CCCC4)SC3=NC2=O)cc1` as the molecule, how does the Potency read?
The Potency was inconclusive: 44.7 µM [inhibitor, partial curve].

Which Potency does the source give for `CC(Nc1ccc(S(N)(=O)=O)cc1[N+](=O)[O-])c1ccco1` (stereo unspecified) here?
Its Potency is inconclusive: 22.4 µM [inhibitor, full curve, poor fit].

For `Cc1ccccc1NC(=O)c1ccc2c(c1)OCCN(C1CCC1)C2`, which “activity change, negative = inhibition” value is on record?
The value was inactive: 55.1% [at 176 µM].

`O=C(c1ccc(Cl)cc1)N1CC2(CCCN2C2COC2)Cc2ccccc21` (stereo unspecified) was tested. Which Potency did it give?
The Potency was inconclusive: 63.1 µM [inhibitor, partial curve, poor fit].

Which Potency does the source give for `Cc1ccc(CNc2ncc(-c3ccc4c(c3)OCO4)n2C)cc1` here?
The Potency was inconclusive: 0.631 µM [inhibitor, full curve, poor fit].

How did the Potency turn out when `Cc1ccc(/C=C/C(=O)Nc2ccc([N+](=O)[O-])cc2)o1` was run?
Its Potency is active: 6.31 µM.

With `CC1CCCCN1C(=O)CSc1nc2cc3c(cc2c(=O)n1Cc1ccc2c(c1)OCO2)OCO3` (stereo unspecified) as the molecule, how does the Potency read?
The Potency was inconclusive: 1.12 µM [inhibitor, full curve, poor fit].

Which “activity change, negative = inhibition” value does the source give for `Cc1cc(C)n2nc(SCC(=O)Nc3ccc(F)c(F)c3F)nc2n1` here?
Its value is inactive: -20.6%.

`O=C(Oc1ccc2c(c1)OCO2)c1cc2c(s1)CCC2` was tested. Which Potency did it give?
The Potency was inconclusive: 50.1 µM [inhibitor, single point].

How did the Potency turn out when `C=CCn1c(C)cc(C2=NNC(=Nc3ccc(C)cc3)SC2)c1C` was run?
Its Potency is inconclusive: 39.8 µM [inhibitor, partial curve].

How did the Potency turn out when `Cc1cc(C)nc(Nc2nc(=O)c3ccccc3s2)n1` was run?
Its Potency is inconclusive: 31.6 µM [inhibitor, partial curve].

`Cc1ccc2c(COC(=O)c3ccc4ccccc4c3)cc(=O)oc2c1` was tested. Which Potency did it give?
Its Potency is inconclusive: 2 µM [inhibitor, full curve].

Which Potency does the source give for `CC(=O)Nc1ccc(C(=O)C(C)Sc2ccc(C(F)(F)F)cn2)cc1` (stereo unspecified) here?
The Potency was inconclusive: 56.2 µM [inhibitor, partial curve, poor fit].

With `Cc1ccc(-n2c(C)nnc2SC(C)C(=O)Nc2cc(C)on2)cc1` (stereo unspecified) as the molecule, how does the Potency read?
The Potency was inconclusive: 126 µM [inhibitor, single point].

Which “activity change, negative = inhibition” value does the source give for `CSc1nc(Nc2ccccc2)c(C#N)c(-c2ccccc2)n1` here?
Its value is inactive: 19.3%.

`CN(C)C(CNC(=O)c1cc(=O)c2cc(Cl)ccc2o1)c1ccco1` (stereo unspecified) was tested. Which Potency did it give?
Its Potency is inconclusive: 89.1 µM [inhibitor, single point].

Which Potency does the source give for `O=C(CSc1nc2ccc(NC(=O)c3ccccc3C(=O)O)cc2s1)Nc1c(Cl)cccc1Cl` here?
The Potency was inconclusive: 44.7 µM [inhibitor, partial curve, poor fit].

For `N#Cc1cc2c(=O)n3ccccc3nc2n(-c2nnc(SCc3ccccc3)s2)c1=O`, which Potency is on record?
Its Potency is inconclusive: 141 µM [inhibitor, partial curve, poor fit].

How did the “activity change, negative = inhibition” value turn out when `Cc1ccc(C(=O)CSc2nnc3ccc4ccccc4n23)cc1` was run?
The value was inactive: -23.7%.

How did the Potency turn out when `O=C(/C=C/c1ccco1)Nc1ccc2oc(-c3cccc(F)c3)nc2c1` was run?
The Potency was inconclusive: 17.8 µM [inhibitor, partial curve, poor fit].

With `CC(C)c1ccccc1NC(=O)COC(=O)c1c2c(nc3ccccc13)CCN(Cc1ccccc1)C2` as the molecule, how does the “activity change, negative = inhibition” value read?
Its value is inactive: -5.05%.

For `O=C(c1ccc(Cl)cc1)N1CC2(CCN(Cc3c[nH]c4ccccc34)CC2)Cc2ccccc21`, which Potency is on record?
Its Potency is inconclusive: 44.7 µM [inhibitor, partial curve, poor fit].

For `COc1cc(/C=C(\C#N)C(=O)c2ccc(C)cc2)ccc1OCc1c(Cl)cccc1Cl`, which Potency is on record?
The Potency was inconclusive: 50.1 µM [inhibitor, partial curve, poor fit].

With `N#Cc1c(NC(=O)CSc2ncnc3sccc23)oc(-c2ccco2)c1-c1ccco1` as the molecule, how does the Potency read?
Its Potency is inconclusive: 44.7 µM [inhibitor, partial curve, poor fit].

Which Potency does the source give for `CCOC(=O)c1nnsc1Nc1ccc(C)c(C)c1` here?
Its Potency is inconclusive: 70.8 µM [inhibitor, partial curve, poor fit].

Which Potency does the source give for `COc1ccccc1C(=O)N1CCC2(CC1)COc1ccccc1CN2` here?
Its Potency is inconclusive: 7.08 µM [inhibitor, full curve, poor fit].

For `O=c1[nH]c2ccccc2nc1/C=C/c1ccc(O)cc1`, which Potency is on record?
Its Potency is inconclusive: 50.1 µM [inhibitor, partial curve, poor fit].

With `COc1ccc(NC(=S)Nc2ccc(S(N)(=O)=O)cc2)c(C)c1` as the molecule, how does the Potency read?
The Potency was inconclusive: 44.7 µM [inhibitor, partial curve, poor fit].

How did the Potency turn out when `Cc1ccc(NC(CNS(=O)(=O)c2ccc(Cl)cc2)c2ccccc2)cc1` (stereo unspecified) was run?
The Potency was inconclusive: 15.8 µM [inhibitor, partial curve, poor fit] and inconclusive: 31.6 µM [inhibitor, partial curve, poor fit].

Which Potency does the source give for `COc1cccc2nc(-c3cccs3)nc(NN3C(=O)C=C(C)C3=O)c12` here?
The Potency was inconclusive: 24.3 µM [inhibitor, partial curve, poor fit].

Which Potency does the source give for `O=C(CCn1nc(-c2ccccc2)c2ccccc2c1=O)Nc1cccc2ccccc12` here?
Its Potency is inconclusive: 141 µM [inhibitor, single point].

`C#CCN(C[C@@H]1[C@@H](OC(=O)Nc2c(C)noc2C)[C@@H](OC(=O)Nc2c(C)noc2C)Cn2c(=O)n(CCCCCC)c(=O)n21)S(=O)(=O)c1ccc(C)cc1` was tested. Which Potency did it give?
Its Potency is inconclusive: 35.5 µM [inhibitor, partial curve].

For `CC1CCN(CC(=O)N2c3ccccc3CCc3ccccc32)CC1`, which Potency is on record?
Its Potency is inconclusive: 79.4 µM [inhibitor, single point].

Which “activity change, negative = inhibition” value does the source give for `NC(c1csc(NC(=O)Nc2ccccc2)n1)C1CCCCC1` (stereo unspecified) here?
The value was inactive: 7.97%.

How did the Potency turn out when `C=CCN(Cc1cc(OC)ccc1OC)C(=O)c1cc2ccc(OC)cc2[nH]1` was run?
Its Potency is inconclusive: 44.7 µM [inhibitor, partial curve].

For `C=CCC[C@@H](Cc1ccc(F)cc1)C(=O)OC[C@H](C)NC(=O)[C@@H](CC=C)CC(=O)N(CCO)Cc1ccccc1`, which “activity change, negative = inhibition” value is on record?
The value was inactive: -5.28%.

With `CC(C)C[C@H](NC(=O)c1nc[nH]c1C(=O)N[C@@H](CC(C)C)C(=O)OC(C)(C)C)C(=O)OC(C)(C)C` as the molecule, how does the “activity change, negative = inhibition” value read?
Its value is inactive: 5.16%.

`C[C@H](CO)N1C[C@H](C)[C@@H](CN(C)CC2CCOCC2)Oc2cc(C#Cc3ccccc3F)ccc2S1(=O)=O` was tested. Which Potency did it give?
Its Potency is inconclusive: 112 µM [inhibitor, single point].

Which Potency does the source give for `O=C(/C=C/c1cccs1)N1CC=C(c2ccccc2)CC1` here?
The Potency was inconclusive: 39.8 µM [inhibitor, partial curve, poor fit].

How did the “activity change, negative = inhibition” value turn out when `CCn1c(=O)cc(OCC(=O)Nc2ccccc2Cl)c2ccccc21` was run?
Its value is inactive: -17.2%.

`O=C(OCC(F)(F)C(F)F)c1cccnc1` was tested. Which Potency did it give?
The Potency was inconclusive: 35.5 µM [inhibitor, partial curve, poor fit].

For `COc1ccccc1-n1c(CCn2nc(C)c(Br)c2C)n[nH]c1=S`, which Potency is on record?
Its Potency is inconclusive: 100 µM [inhibitor, partial curve, poor fit].

`S=C(NNC(=S)Nc1ccccc1)Nc1ccccc1` was tested. Which Potency did it give?
Its Potency is inconclusive: 44.7 µM [inhibitor, partial curve, poor fit].

Which Potency does the source give for `S=C(NCC1CCCO1)Nc1ccc(Nc2ccccc2)cc1` (stereo unspecified) here?
Its Potency is inconclusive: 50.1 µM [inhibitor, single point].

`Cc1ccc2[nH]c3c(=O)n(CC(=O)N(C)Cc4ccccc4)ncc3c2c1` was tested. Which Potency did it give?
The Potency was inconclusive: 89.1 µM [inhibitor, partial curve, poor fit].

How did the Potency turn out when `Cc1ccc(-n2c(C)cc(C3N=C(N)Nc4nc5ccccc5n43)c2C)c(C)c1` (stereo unspecified) was run?
Its Potency is inconclusive: 44.7 µM [inhibitor, partial curve, poor fit].

Which Potency does the source give for `COC(=O)c1c(-c2ccc(C(C)(C)C)cc2)csc1NC(=O)C1C2CCC(O2)C1C(=O)O` (stereo unspecified) here?
The Potency was inconclusive: 56.2 µM [inhibitor, partial curve, poor fit].

`COc1ccc(/C=N/Nc2nnc(C)n2N)cc1OC(C)=O` was tested. Which Potency did it give?
The Potency was inconclusive: 35.5 µM [inhibitor, partial curve, poor fit].

With `COCCn1c(CCC(=O)Nc2cc(C)ccc2F)nc2c1c(=O)[nH]c(=O)n2CC(C)C` as the molecule, how does the “activity change, negative = inhibition” value read?
The value was inactive: -10.1%.

How did the Potency turn out when `Cn1c(CN2CCCCC2)nc2cc(NC(=O)c3ccc(Cl)cc3)ccc21` was run?
The Potency was “inactive”.

For `CC(=O)N1CCc2[nH]cnc2C12CCN(C(=O)Cn1nccc1C)CC2`, which Potency is on record?
Its Potency is inconclusive: 12.6 µM [inhibitor, partial curve, poor fit].

Which Potency does the source give for `CCOc1cc(/C=C2/COc3ccccc3C2=O)ccc1OCC(=O)N(C)C` here?
The Potency was inconclusive: 11.2 µM [inhibitor, partial curve, poor fit].

Which Potency does the source give for `Cc1cccc(N2CCN(C(=O)c3ccnn3C)CC2)c1C` here?
The Potency was inconclusive: 14.1 µM [inhibitor, full curve, poor fit].

Which Potency does the source give for `Cc1ccccc1C1=NOC2CN(C(=O)COc3ccccc3)CC12` (stereo unspecified) here?
The Potency was inconclusive: 126 µM [inhibitor, partial curve, poor fit].
